These results are taken from publication PMC7952723.

Chains of the proteins cited; added tags and fusions are not shown.
UniProt Q8BG36: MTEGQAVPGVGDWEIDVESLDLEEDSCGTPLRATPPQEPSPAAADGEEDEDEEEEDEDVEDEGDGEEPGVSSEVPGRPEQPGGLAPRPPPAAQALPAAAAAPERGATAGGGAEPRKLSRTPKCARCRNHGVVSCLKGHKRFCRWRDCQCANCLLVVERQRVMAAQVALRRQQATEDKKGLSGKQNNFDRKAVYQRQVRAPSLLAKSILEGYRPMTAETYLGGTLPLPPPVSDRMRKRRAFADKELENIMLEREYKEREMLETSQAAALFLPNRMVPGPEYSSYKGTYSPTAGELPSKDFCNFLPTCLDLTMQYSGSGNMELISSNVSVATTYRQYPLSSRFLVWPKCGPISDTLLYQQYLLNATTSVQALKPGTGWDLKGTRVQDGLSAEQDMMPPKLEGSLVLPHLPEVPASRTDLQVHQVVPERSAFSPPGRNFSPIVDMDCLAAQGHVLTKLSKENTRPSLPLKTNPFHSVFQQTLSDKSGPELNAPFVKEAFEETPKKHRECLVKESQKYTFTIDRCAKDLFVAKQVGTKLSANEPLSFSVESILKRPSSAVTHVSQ
UniProt Q08775: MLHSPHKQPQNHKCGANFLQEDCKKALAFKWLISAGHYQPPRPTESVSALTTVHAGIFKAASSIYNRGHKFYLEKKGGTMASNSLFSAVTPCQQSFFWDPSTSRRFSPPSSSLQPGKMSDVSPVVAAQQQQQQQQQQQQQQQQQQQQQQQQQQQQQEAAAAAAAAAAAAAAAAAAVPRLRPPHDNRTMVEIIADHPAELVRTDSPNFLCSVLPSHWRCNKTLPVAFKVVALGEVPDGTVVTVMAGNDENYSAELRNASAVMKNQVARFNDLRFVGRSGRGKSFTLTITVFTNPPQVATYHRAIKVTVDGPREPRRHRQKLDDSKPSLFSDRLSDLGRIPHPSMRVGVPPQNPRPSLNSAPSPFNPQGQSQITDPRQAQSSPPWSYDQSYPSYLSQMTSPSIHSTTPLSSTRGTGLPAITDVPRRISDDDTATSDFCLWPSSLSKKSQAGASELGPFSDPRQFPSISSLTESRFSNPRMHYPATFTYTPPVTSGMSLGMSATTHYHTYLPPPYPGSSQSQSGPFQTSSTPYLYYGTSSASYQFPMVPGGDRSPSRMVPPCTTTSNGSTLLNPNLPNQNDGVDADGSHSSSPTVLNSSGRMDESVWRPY

These are yes or no findings as the source states them, for the method shown. In cells and extracts the contact can be indirect. Some results given as binding are weak or reduced against the parent protein; the word gives no strength.

For the assay, the target named is Dmrt2 (double-sex and mab-3 related transcription factor 2) (mouse) (UniProt Q8BG36). As to the kind of experiment: co-IP; cell lysates immunoprecipitated with anti-Flag antibody, then immunoblotted with anti-HA antibody; cell type not stated. Background: In western blotting, separated proteins are transferred to a membrane and probed.

Consider “Runx2 (runt-related transcription factor 2) (from UniProt Q08775 1-607)”, for which the binding entry is “binds”.
